From patent US20250326807A1, “CALPROTECTIN BINDING PEPTIDES” (Buehlmann Laboratories AG, priority 2022, published 2025) come the findings set out here.

Sequences of proteins named here, by UniProt entry; tags and fusion partners are left off. A change or cut given only in a name is not applied to a line headed by its entry.
UniProt P06702: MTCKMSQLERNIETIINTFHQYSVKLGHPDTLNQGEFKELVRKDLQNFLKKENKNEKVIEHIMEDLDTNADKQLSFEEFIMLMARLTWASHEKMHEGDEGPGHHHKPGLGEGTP
UniProt P05109: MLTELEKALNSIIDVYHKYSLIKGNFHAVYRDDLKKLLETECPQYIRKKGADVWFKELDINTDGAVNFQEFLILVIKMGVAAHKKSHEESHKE

No constants are given. Whether binding was seen depends on the method and setting. Some binding calls cover weakened binding; strength is not graded here. Tags and fused reporters may be left off the sequences shown.

The target of this experiment is T1, Recombinantly expressed fused calprotectin (His6-linker-S100A9-linker-S100A8), product code B-RCAL, BÜHLMANN Laboratories AG (human) (UniProt P06702+P05109).
T1 sequence: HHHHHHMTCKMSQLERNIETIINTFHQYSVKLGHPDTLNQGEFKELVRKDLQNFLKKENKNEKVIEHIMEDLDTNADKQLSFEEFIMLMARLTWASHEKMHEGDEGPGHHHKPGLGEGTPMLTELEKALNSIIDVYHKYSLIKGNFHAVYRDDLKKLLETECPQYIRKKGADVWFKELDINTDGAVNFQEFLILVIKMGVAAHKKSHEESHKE
Description: sandwich ELISA, calprotectin captured by rabbit polyclonal antibody, peptide-biotin with Strep-HRP.

As for RSPESVAFPMFQSHWYSG (N-terminal biotin (attachment not described)) [Peptide 3 with N-terminal biotinylation], the binding entry was “binds”.
